As a reminder, the solubility (kinetic) is solubility judged after dilution from a stock solution rather than from solid.

Experimental findings from ChEMBL document CHEMBL1938289, “Facile synthesis of tetracyclic azepine and oxazocine derivatives and their potential as MAPKAP-K2 (MK2) inhibitors” (Bioorg Med Chem Lett, 2012) are described below.

≈ marks a conversion by molar mass, not a printed value.

This series is described as follows: Kinetic solubility of the compound at pH 7.4. The settings on record: buffer.

In turn, `Cc1cnc2n1-c1ccc(N3CCNCC3)cc1Cc1cc(-c3ccc(Cl)cc3)oc1-2` came in with a solubility (kinetic) of 20 µM (≈ 8.62 µg/mL).
